Results are given in words; binding and its absence hold for the method and conditions named. Some binding calls cover weakened binding; strength is not graded here. Tags and fused reporters may be left off the sequences shown.
Target: T1, Abf2, Saccharomyces cerevisiae TFAM homologue (Saccharomyces cerevisiae) (UniProt Q02486)
T1 sequence: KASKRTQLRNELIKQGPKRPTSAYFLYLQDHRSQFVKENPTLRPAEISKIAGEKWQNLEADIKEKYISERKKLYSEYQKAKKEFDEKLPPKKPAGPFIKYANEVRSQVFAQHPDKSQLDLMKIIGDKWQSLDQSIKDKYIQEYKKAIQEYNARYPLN
Assay: cross-linking; hLon and Abf2 in a 1:1.6 mass ratio, 0.1% (v/v) glutaraldehyde, 40 min, room temperature, 2 mM ATP, 10 mM MgCl2; 5% SDS-PAGE, immunoblot with anti-Abf2 antibody; both purified

Sequences of proteins named here, by UniProt entry; tags and fusion partners are left off. Residues count along the entry.
UniProt P36776, residues 68-959: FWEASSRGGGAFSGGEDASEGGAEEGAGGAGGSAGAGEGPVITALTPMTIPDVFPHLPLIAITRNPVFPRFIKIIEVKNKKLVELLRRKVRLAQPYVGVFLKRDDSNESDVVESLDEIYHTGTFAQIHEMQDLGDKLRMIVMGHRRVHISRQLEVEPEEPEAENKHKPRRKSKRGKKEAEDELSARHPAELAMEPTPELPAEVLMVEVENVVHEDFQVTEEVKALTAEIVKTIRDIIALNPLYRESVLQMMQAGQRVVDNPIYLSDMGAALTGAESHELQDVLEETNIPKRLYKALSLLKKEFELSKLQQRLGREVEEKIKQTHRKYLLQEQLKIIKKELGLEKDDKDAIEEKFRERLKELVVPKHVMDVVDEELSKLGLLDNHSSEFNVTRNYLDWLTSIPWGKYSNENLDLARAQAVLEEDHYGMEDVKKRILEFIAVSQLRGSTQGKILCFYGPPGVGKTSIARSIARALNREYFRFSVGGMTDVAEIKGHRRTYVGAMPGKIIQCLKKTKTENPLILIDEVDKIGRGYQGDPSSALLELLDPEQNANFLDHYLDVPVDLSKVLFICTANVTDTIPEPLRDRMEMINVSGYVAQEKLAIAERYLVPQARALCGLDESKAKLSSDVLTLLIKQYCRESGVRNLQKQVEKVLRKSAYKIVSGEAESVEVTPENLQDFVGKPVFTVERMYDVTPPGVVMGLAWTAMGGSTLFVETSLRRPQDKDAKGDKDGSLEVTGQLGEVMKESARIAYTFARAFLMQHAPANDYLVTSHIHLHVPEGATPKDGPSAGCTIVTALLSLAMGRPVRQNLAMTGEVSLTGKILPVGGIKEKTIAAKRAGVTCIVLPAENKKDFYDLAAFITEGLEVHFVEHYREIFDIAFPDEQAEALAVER

binding: binds
Substance: wild-type human mitochondrial Lon protease lacking the N-terminal MTS, hexahistidine-tagged (from UniProt P36776 68-959) (enzyme)

From PMC11061198, “Polyphosphate and tyrosine phosphorylation in the N-terminal domain of the human mitochondrial Lon protease disrupts its functions” (Scientific Reports, 2024)
